This is one part of the list.
Compound: Cc1cc(ccc1-c1ccccc1)C(=O)N1CCCN(CC1)C(=O)CCl [compound 10]
Experiment: probe-labelled cysteine peptide fold change vs DMSO (competition) (log2 fold change); higher = less target engagement (more negative = stronger competition)
Conditions: THP-1, incubation time: 4 h
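Further: competitive profiling in live THP-1 cells: cysteine peptides tagged with an iodoacetamide desthiobiotin (IA-DTB) probe, intensity after compound treatment relative to DMSO-treated cells.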

Chains of the proteins cited; added tags and fusions are not shown. Lines headed by an entry give the natural chain unless they say otherwise; changes in a name come on top.
UniProt Q8WWN8: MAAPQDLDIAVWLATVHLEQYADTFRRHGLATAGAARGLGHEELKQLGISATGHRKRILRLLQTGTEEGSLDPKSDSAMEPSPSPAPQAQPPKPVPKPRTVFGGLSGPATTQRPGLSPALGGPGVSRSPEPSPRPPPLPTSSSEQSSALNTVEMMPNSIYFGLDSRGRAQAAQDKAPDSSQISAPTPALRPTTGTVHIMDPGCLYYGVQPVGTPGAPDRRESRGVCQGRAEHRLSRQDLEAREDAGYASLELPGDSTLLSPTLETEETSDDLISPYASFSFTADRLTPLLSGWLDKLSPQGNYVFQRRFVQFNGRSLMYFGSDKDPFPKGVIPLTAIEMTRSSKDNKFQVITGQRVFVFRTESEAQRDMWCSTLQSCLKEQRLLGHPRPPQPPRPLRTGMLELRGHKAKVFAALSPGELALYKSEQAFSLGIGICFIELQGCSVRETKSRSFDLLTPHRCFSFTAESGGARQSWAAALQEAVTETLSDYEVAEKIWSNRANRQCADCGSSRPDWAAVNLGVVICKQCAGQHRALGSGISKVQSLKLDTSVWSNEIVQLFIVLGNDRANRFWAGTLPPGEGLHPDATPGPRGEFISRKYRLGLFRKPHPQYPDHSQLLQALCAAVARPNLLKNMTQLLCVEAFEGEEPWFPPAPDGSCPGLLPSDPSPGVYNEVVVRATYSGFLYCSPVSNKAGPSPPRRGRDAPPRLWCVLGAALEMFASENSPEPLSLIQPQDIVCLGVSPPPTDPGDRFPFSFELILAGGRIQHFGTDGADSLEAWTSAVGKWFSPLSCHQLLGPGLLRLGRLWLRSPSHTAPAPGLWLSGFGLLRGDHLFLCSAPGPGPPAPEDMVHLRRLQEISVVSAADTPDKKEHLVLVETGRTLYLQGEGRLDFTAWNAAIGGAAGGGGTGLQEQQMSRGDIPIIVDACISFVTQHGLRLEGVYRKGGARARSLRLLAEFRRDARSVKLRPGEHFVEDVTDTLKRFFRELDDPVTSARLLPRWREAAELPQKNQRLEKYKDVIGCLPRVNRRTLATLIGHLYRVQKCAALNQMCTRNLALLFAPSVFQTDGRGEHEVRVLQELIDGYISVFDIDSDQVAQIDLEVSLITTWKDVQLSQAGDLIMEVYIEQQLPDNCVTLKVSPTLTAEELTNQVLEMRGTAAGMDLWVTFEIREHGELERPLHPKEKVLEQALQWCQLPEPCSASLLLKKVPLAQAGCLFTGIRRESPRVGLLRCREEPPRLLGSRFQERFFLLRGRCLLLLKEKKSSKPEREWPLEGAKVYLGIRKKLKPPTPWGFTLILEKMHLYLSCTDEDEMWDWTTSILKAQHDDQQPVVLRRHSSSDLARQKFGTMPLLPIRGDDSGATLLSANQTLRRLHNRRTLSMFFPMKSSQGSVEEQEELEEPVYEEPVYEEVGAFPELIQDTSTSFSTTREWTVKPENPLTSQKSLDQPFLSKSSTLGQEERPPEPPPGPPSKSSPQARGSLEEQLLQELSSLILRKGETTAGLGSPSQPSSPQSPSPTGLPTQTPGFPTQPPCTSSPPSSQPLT
UniProt Q7Z2E3: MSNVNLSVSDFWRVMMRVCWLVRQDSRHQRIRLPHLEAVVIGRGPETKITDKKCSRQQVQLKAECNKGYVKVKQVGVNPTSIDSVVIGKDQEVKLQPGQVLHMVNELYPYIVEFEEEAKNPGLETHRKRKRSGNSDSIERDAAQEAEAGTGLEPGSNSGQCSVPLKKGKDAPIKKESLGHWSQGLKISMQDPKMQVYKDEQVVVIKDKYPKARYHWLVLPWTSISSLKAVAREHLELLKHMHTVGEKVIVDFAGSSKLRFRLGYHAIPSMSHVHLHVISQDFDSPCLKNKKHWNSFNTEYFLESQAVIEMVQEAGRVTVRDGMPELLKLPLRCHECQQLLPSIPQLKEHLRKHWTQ
UniProt Q15052: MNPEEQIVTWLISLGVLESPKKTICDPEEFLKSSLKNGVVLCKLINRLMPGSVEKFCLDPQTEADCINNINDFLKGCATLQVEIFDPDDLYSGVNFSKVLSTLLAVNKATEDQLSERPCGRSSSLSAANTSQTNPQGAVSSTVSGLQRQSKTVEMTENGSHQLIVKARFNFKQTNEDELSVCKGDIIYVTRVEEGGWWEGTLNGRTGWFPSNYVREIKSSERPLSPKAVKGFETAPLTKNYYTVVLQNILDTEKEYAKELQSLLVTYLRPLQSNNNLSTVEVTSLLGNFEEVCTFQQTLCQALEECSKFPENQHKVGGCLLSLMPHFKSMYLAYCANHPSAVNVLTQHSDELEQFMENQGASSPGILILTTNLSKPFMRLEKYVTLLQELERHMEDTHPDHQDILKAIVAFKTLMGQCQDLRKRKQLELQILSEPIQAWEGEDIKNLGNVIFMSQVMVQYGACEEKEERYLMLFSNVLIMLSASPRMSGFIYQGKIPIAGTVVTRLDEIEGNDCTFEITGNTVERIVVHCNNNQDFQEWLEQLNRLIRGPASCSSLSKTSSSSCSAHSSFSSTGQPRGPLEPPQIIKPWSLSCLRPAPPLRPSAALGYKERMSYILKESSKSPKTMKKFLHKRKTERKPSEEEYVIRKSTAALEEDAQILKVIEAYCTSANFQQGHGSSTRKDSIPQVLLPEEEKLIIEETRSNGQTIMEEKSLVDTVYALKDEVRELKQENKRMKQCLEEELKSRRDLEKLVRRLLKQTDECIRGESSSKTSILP
UniProt Q8N8R7: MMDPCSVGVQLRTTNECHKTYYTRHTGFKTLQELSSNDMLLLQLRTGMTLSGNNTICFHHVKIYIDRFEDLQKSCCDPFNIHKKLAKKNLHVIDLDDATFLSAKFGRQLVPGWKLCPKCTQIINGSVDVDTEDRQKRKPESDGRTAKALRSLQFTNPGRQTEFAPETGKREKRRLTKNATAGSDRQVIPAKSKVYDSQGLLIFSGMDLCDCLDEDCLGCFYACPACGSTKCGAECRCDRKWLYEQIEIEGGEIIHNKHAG
UniProt Q6ZSZ5: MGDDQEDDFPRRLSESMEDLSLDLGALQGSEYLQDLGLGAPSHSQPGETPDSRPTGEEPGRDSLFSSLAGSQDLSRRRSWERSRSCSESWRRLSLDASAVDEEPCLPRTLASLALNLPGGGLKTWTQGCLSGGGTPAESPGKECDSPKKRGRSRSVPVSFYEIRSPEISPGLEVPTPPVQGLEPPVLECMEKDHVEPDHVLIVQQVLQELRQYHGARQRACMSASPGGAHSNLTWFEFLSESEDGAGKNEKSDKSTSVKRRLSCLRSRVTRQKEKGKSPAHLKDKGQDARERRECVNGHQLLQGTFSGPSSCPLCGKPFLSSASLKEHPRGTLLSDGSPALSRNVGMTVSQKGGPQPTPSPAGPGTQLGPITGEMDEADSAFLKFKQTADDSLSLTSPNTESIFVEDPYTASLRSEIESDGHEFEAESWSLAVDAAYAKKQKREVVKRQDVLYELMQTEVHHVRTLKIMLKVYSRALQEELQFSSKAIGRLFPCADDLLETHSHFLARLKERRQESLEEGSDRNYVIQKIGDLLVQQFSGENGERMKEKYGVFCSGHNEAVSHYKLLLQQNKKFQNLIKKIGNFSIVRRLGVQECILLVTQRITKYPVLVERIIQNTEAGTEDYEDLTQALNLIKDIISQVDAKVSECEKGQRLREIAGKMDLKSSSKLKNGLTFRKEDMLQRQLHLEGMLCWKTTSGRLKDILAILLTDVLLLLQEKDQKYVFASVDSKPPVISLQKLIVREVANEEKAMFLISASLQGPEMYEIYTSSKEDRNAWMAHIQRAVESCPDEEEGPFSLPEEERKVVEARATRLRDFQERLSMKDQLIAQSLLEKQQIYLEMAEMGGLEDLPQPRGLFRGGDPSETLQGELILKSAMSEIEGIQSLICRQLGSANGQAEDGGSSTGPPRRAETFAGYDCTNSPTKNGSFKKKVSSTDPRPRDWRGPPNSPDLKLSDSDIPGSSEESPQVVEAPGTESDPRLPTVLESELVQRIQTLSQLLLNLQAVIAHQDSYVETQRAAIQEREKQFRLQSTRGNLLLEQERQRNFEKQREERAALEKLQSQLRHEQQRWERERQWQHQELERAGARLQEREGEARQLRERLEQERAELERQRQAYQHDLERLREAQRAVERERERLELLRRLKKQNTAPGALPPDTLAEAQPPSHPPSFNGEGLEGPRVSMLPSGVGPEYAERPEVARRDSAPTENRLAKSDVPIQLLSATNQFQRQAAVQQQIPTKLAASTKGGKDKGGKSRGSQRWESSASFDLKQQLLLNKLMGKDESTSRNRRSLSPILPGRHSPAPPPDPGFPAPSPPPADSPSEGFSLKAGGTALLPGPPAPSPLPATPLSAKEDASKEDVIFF
UniProt Q9UKG1: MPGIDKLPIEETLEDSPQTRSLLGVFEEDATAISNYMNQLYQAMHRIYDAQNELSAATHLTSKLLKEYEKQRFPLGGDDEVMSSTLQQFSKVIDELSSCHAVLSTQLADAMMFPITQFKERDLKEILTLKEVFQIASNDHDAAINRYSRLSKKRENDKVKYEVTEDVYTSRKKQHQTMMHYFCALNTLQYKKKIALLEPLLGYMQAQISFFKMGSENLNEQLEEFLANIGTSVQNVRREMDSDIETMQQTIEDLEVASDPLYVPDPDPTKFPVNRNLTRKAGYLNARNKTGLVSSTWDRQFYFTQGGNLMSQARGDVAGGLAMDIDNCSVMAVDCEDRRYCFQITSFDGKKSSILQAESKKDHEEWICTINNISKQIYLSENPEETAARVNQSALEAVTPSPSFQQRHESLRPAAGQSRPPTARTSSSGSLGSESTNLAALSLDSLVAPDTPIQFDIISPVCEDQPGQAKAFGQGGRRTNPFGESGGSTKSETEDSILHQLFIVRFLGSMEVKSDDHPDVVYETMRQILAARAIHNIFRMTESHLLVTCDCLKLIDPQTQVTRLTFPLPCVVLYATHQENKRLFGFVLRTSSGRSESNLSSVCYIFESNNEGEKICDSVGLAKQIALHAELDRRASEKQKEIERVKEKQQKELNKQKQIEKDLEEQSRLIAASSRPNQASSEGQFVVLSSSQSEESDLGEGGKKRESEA
UniProt P40616: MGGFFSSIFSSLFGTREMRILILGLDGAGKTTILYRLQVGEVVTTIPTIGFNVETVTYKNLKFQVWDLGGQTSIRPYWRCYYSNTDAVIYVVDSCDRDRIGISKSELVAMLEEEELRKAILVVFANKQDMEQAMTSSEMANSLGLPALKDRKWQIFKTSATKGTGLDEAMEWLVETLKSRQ
UniProt Q66PJ3: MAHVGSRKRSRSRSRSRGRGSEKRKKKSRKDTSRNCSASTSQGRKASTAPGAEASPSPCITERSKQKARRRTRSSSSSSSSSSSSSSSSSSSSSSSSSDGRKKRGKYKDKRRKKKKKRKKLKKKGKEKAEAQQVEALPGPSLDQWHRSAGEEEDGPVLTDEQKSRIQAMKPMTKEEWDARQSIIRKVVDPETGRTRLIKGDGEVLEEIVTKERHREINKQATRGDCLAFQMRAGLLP
UniProt P48444: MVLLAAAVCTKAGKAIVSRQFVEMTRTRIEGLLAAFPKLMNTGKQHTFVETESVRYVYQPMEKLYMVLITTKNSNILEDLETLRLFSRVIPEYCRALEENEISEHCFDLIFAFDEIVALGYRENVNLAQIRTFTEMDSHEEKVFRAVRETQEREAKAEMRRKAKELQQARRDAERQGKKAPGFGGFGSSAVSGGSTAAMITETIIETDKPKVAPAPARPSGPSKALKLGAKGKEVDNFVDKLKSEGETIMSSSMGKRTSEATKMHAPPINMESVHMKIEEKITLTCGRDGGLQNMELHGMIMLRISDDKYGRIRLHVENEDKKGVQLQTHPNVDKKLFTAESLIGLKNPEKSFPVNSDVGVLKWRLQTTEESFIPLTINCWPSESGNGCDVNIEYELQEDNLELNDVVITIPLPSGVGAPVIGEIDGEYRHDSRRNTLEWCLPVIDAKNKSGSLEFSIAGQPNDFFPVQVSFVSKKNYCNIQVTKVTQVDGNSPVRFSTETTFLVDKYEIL
UniProt Q8N392: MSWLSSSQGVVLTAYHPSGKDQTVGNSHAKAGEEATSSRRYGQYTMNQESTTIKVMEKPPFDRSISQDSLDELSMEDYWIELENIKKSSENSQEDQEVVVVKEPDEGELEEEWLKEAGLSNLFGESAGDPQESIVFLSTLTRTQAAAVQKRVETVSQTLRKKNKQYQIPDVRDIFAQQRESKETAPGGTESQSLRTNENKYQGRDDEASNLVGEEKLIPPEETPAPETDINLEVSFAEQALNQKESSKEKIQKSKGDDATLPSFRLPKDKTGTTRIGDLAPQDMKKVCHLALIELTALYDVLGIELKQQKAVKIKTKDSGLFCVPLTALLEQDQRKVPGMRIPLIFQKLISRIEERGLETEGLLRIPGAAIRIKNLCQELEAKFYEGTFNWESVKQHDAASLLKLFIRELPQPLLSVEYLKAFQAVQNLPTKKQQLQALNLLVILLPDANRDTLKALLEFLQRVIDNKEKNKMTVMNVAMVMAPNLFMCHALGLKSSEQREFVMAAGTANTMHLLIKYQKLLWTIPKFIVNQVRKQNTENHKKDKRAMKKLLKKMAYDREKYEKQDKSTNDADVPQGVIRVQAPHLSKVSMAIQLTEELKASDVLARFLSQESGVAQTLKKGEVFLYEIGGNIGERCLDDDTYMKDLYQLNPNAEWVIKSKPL

Target: ARAP3_Q8WWN8_1215_KVPLAQAGCLFTGIR (UniProt Q8WWN8)
- probe-labelled cysteine peptide fold change (10 µM): -0.078
- probe-labelled cysteine peptide fold change (50 µM): -0.664

Target: ARIH1_Q9Y4X5_304_QFCFNCGENWHDPVK (UniProt Q9Y4X5)
- probe-labelled cysteine peptide fold change (10 µM): 0.0542
- probe-labelled cysteine peptide fold change (50 µM): -0.0254

Target: ARAP3_Q8WWN8_1199_VLEQALQWCQLPEPCSASLLLK (UniProt Q8WWN8)
- probe-labelled cysteine peptide fold change (10 µM): -0.148
- probe-labelled cysteine peptide fold change (50 µM): -0.683

Target: ARAP1_Q96P48_1357_LRPPTCWGFTVVHETEK (UniProt Q96P48)
- probe-labelled cysteine peptide fold change (10 µM): 0.00392
- probe-labelled cysteine peptide fold change (50 µM): 0.175

Target: ARHGAP45_Q92619_278_CEGGVDAALLYAK (UniProt Q92619)
- probe-labelled cysteine peptide fold change (10 µM): -0.0931
- probe-labelled cysteine peptide fold change (50 µM): -0.411

Target: APTX_Q7Z2E3_333+336_CHECQQLLPSIPQLK (UniProt Q7Z2E3)
- probe-labelled cysteine peptide fold change (10 µM): -0.0163
- probe-labelled cysteine peptide fold change (50 µM): -0.255

Target: ARHGEF6_Q15052_564_TSSSSCSAHSSFSSTGQPR (UniProt Q15052)
- probe-labelled cysteine peptide fold change (10 µM): 0.088
- probe-labelled cysteine peptide fold change (50 µM): -0.422

Target: APPL2_Q8NEU8_606_ICYAINLGK (UniProt Q8NEU8)
- probe-labelled cysteine peptide fold change (10 µM): 0.187
- probe-labelled cysteine peptide fold change (50 µM): 0.176

Target: ARL14EP_Q8N8R7_5_MDPCSVGVQLR (UniProt Q8N8R7)
- probe-labelled cysteine peptide fold change (10 µM): -0.166
- probe-labelled cysteine peptide fold change (50 µM): -0.127

Target: ARMC7_Q9H6L4_144_SFLPELTATPVVQCMLR (UniProt Q9H6L4)
- probe-labelled cysteine peptide fold change (10 µM): 0.439
- probe-labelled cysteine peptide fold change (50 µM): 0.341

Target: APRT_P07741_153_LQAEVLECVSLVELTSLK (UniProt P07741)
- probe-labelled cysteine peptide fold change (10 µM): 0.175
- probe-labelled cysteine peptide fold change (50 µM): 0.125

Target: ARHGAP35_Q9NRY4_663_LPVNSFQTPTFQPHGCLCLYNSK (UniProt Q9NRY4)
- probe-labelled cysteine peptide fold change (10 µM): 0.0344
- probe-labelled cysteine peptide fold change (50 µM): -0.0768

Target: ARID2_Q68CP9_1271_IEVMENPSCR (UniProt Q68CP9)
- probe-labelled cysteine peptide fold change (10 µM): -0.0221
- probe-labelled cysteine peptide fold change (50 µM): -0.133

Target: ARHGEF18_Q6ZSZ5_494_LFPCADDLLETHSHFLAR (UniProt Q6ZSZ5)
- probe-labelled cysteine peptide fold change (10 µM): -0.241
- probe-labelled cysteine peptide fold change (50 µM): -0.113

Target: ARHGEF2_Q92974_282_TGMLEELHLEPGVVQGLFPCVDELSDIHTR (UniProt Q92974)
- probe-labelled cysteine peptide fold change (10 µM): -0.113
- probe-labelled cysteine peptide fold change (50 µM): -0.0247

Target: AQR_O60306_250_VHYCER (UniProt O60306)
- probe-labelled cysteine peptide fold change (10 µM): 0.122
- probe-labelled cysteine peptide fold change (50 µM): 0.347

Target: ARFRP1_Q13795_19_DEYCILILGLDNAGK (UniProt Q13795)
- probe-labelled cysteine peptide fold change (10 µM): 0.0244
- probe-labelled cysteine peptide fold change (50 µM): 0.17

Target: ARHGEF2_Q92974_342_TYSEFCSR (UniProt Q92974)
- probe-labelled cysteine peptide fold change (10 µM): 0.0873
- probe-labelled cysteine peptide fold change (50 µM): 0.0127

Target: APPL1_Q9UKG1_549_MTESHLLVTCDCLK (UniProt Q9UKG1)
- probe-labelled cysteine peptide fold change (10 µM): 0.194
- probe-labelled cysteine peptide fold change (50 µM): 0.317

Target: APOOL_Q6UXV4_74_TATGCYIGWCK (UniProt Q6UXV4)
- probe-labelled cysteine peptide fold change (10 µM): -0.823
- probe-labelled cysteine peptide fold change (50 µM): -1.75

Target: ARHGAP4_P98171_349_FDYHPHDGDEVAEICVEMELRDEILPR (UniProt P98171)
- probe-labelled cysteine peptide fold change (10 µM): 0.198
- probe-labelled cysteine peptide fold change (50 µM): 0.42

Target: AQR_O60306_1039_IIAMTCTHAALKR (UniProt O60306)
- probe-labelled cysteine peptide fold change (10 µM): 0.202
- probe-labelled cysteine peptide fold change (50 µM): 0.116

Target: ARL1_P40616_95_CYYSNTDAVIYVVDSCDRDR (UniProt P40616)
- probe-labelled cysteine peptide fold change (10 µM): 0.0139
- probe-labelled cysteine peptide fold change (50 µM): -0.306

Target: ARHGEF6_Q15052_530_IVVHCNNNQDFQEWLEQLNR (UniProt Q15052)
- probe-labelled cysteine peptide fold change (10 µM): 0.0109
- probe-labelled cysteine peptide fold change (50 µM): 0.158

Target: ARIH2_O95376_326_HDFCWMCLGDWK (UniProt O95376)
- probe-labelled cysteine peptide fold change (10 µM): 0.163
- probe-labelled cysteine peptide fold change (50 µM): 0.119

Target: ARL6IP4_Q66PJ3-3_220_NCSASTSQER (UniProt Q66PJ3)
- probe-labelled cysteine peptide fold change (10 µM): -0.274
- probe-labelled cysteine peptide fold change (50 µM): -0.819

Target: ARCN1_P48444_441_RNTLEWCLPVIDAK (UniProt P48444)
- probe-labelled cysteine peptide fold change (10 µM): 0.129
- probe-labelled cysteine peptide fold change (50 µM): -0.00667

Target: ARAP3_Q8WWN8_835_GDHLFLCSAPGPGPPAPEDMVHLR (UniProt Q8WWN8)
- probe-labelled cysteine peptide fold change (10 µM): -0.23
- probe-labelled cysteine peptide fold change (50 µM): -0.0406

Target: ARRB1_P49407_125_KLGEHAYPFTFEIPPNLPCSVTLQPGPEDTGK (UniProt P49407)
- probe-labelled cysteine peptide fold change (10 µM): -0.0331
- probe-labelled cysteine peptide fold change (50 µM): 0.0334

Target: ARHGAP1_Q07960_91_IIVFSACR (UniProt Q07960)
- probe-labelled cysteine peptide fold change (10 µM): 0.048
- probe-labelled cysteine peptide fold change (50 µM): 0.103

Target: ARHGEF2_Q92974_306_RQALCPGSTR (UniProt Q92974)
- probe-labelled cysteine peptide fold change (10 µM): 0.0442
- probe-labelled cysteine peptide fold change (50 µM): 0.000311

Target: ARHGAP18_Q8N392_637_CLDDDTYMK (UniProt Q8N392)
- probe-labelled cysteine peptide fold change (10 µM): 0.0982
- probe-labelled cysteine peptide fold change (50 µM): -0.0344

Target: ARPC1A_Q92747_340_NTALETLHQNSITQVSIYEVDKQDCR (UniProt Q92747)
- probe-labelled cysteine peptide fold change (10 µM): -0.0906
- probe-labelled cysteine peptide fold change (50 µM): -0.158

Target: AQR_O60306_681_NLMNTDCVVPDWLHDIILGYGDPSSAHYSK (UniProt O60306)
- probe-labelled cysteine peptide fold change (10 µM): 0.197
- probe-labelled cysteine peptide fold change (50 µM): 0.142

Target: ARHGEF18_Q6ZSZ5_105_RLSLDASAVDEEPCLPR (UniProt Q6ZSZ5)
- probe-labelled cysteine peptide fold change (10 µM): 0.0861
- probe-labelled cysteine peptide fold change (50 µM): 0.0274

Target: ARHGAP30_Q7Z6I6_1021_TQTCTEGGDYCLIPR (UniProt Q7Z6I6)
- probe-labelled cysteine peptide fold change (10 µM): -0.16
- probe-labelled cysteine peptide fold change (50 µM): -0.29

Reference: the supplement of paper PMC12067093, “Discovery and optimisation of a covalent ligand for TRIM25 and its application to targeted protein ubiquitination” (Chemical Science, 2025)
